These results are taken from paper PMC7819943, “Rice protein-binding microarrays: a tool to detect cis-acting elements near promoter regions in rice”.

Chains of the proteins cited; added tags and fusions are not shown.
UniProt Q0JBA9, entry or part of it: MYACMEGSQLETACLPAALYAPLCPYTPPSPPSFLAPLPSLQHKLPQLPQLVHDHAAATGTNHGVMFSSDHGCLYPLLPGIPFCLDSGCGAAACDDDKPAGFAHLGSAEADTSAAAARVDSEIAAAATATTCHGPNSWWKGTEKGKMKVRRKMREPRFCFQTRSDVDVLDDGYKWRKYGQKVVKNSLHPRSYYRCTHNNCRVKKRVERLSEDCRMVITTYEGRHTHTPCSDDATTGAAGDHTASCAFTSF

The other results are listed elsewhere or left out.

The target in the assay is OsWRKY34 (Oryza sativa, UniProt Q0JBA9 1-250). The experiment in a line: protein-binding microarray (RPBM); PBS, 2% BSA, 51.3 ng/ul salmon testes DNA, 50 uM zinc acetate, 200 nM TF, 25 C, 1 h; high values mean tight binding. Particulars: protein: recombinant; tags: N-terminal polyhistidine and DsRed monomer fusion (pET32a); label: CyDye5-dUTP incorporated in the synthesized complementary strand; 3' TTTTT single-stranded linker to array surface; dsDNA, one strand shown. In outline:
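Binding signal is reported as fluorescence intensity per feature (arbitrary units) from an Axon 4000B scanner. Incubation used 200 nM of each Ni–NTA-purified, N-terminally polyhistidine- and DsRed-fused transcription factor from E. coli BL21-CodonPlus on a double-stranded custom Agilent array for 1 h at 25 °C, with 50 µM zinc acetate in the buffer, followed by washing.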
As for “ACTTTCTCTTTTTCTACGTGCATGTTATTTAAACTACTAACGGAGTCACCTAGTGCAG”, the binding signal was 9170 fluorescence intensity (a.u.). The same measure for “TTTTCTCACTAATGTTCTATTGCACACATATGCGCTTAGACGGAGTCACCTAGTGCAG”: 10500 fluorescence intensity (a.u.); for “CTGATCCATGCACTCCATTTGCAACCTGCGGACCTTTTAGCGGAGTCACCTAGTGCAG”: 9270 fluorescence intensity (a.u.). With “ATATATATATATATATATATATATATATATAATCTCTCCTCGGAGTCACCTAGTGCAG” the figure was 9910 fluorescence intensity (a.u.).

On to “GCTATTATACCTGCTCTAATAACTTTGTTTTACTGCTAATCGGAGTCACCTAGTGCAG”, for which the binding signal was 8030 fluorescence intensity (a.u.).

As to “CAAAGAGGAAAGCCAAACGACCCAACCGCATATCCATTTCCGGAGTCACCTAGTGCAG”, the binding signal was 10700 fluorescence intensity (a.u.). On to “GAGTTATAAGTGGGAGGAGGGGATAGAAGAAGGCCTAGTTCGGAGTCACCTAGTGCAG”, for which the binding signal was 9150 fluorescence intensity (a.u.). With “GCGTTTTCCAAGTCCAATATCTTGACTTCCCACAGGTGACCGGAGTCACCTAGTGCAG” the figure was 11400 fluorescence intensity (a.u.); with “GGAGTTTCTTTTTGTCATACTCTGTTTTTCAGCTTTAGCTCGGAGTCACCTAGTGCAG”, 9760 fluorescence intensity (a.u.).

For “CCGGCCATCGCTCGCTTTTCTCCGCCGTTGACGACCACTCCGGAGTCACCTAGTGCAG”, the binding signal is 10400 fluorescence intensity (a.u.). The same measure for “ATTTTGAAGTTGATTTTAGAGTTTGTCGTAGTAGTTTATTCGGAGTCACCTAGTGCAG”: 8220 fluorescence intensity (a.u.). As for “AACCGCTGCATCTTGCCAAATGCTTCTCACTCCACGCATTCGGAGTCACCTAGTGCAG”, the binding signal was 11700 fluorescence intensity (a.u.). Take “CTACTCTCTCTGTCCCACAATATAAGGAATTTTGAGTTTTCGGAGTCACCTAGTGCAG”: the binding signal is 9090 fluorescence intensity (a.u.). Consider “ATATCCGTAGGCCCTAATTGCTTTCAATATGTCCCTTATTCGGAGTCACCTAGTGCAG”, for which the binding signal is 9610 fluorescence intensity (a.u.). “TTTTGTCTTCTATTTCCACCACAGACATAAACTCTATTTTCGGAGTCACCTAGTGCAG”: the binding signal was 9930 fluorescence intensity (a.u.). Turning to “TTCCCTTTTGTTTTCTATTAGATGATCGTCCAGGCGATCTCGGAGTCACCTAGTGCAG”, the binding signal was 9840 fluorescence intensity (a.u.).

On to “CTGTGTTGGACCAGCTCTCTTCTGATTGACTTCTTCCAATCGGAGTCACCTAGTGCAG”, for which the binding signal was 9930 fluorescence intensity (a.u.).

In the case of “CCTCTCTTAGCTTCTCCTAATTTTTTCGCTAGTTTCGTTTCGGAGTCACCTAGTGCAG”, the binding signal was 10500 fluorescence intensity (a.u.). With “GTTTCACCGTTCCCACCACGCACCCCTCTATTTATCCCCGCGGAGTCACCTAGTGCAG” the figure was 8050 fluorescence intensity (a.u.). Regarding “TTTATATACTCTCTCCGTTCAAATTAATCACACATATGTACGGAGTCACCTAGTGCAG”, the binding signal was 8560 fluorescence intensity (a.u.). With “TCGCATATGTCCTCTGACCGCCTGACATTCCATTGTGTTTCGGAGTCACCTAGTGCAG”, the binding signal is 9990 fluorescence intensity (a.u.).

For “AGATTGTGCATCATGACTTATCCTGAACGTTGTTGACCTTCGGAGTCACCTAGTGCAG”, the binding signal was 8960 fluorescence intensity (a.u.).

Regarding “TGGGCCGGGTTTGGTGGTTGCTTCATGATGTGATTTAAACCGGAGTCACCTAGTGCAG”, the binding signal is 8170 fluorescence intensity (a.u.). For “TCGCTGTCCCTCGCTCACTCTCACAGTCTCACTCCGGCCGCGGAGTCACCTAGTGCAG”, the binding signal is 10200 fluorescence intensity (a.u.).

Consider “TTTTCTTCTTTACTACTTTCTCTGTTCCCCTCGCCGTCGCCGGAGTCACCTAGTGCAG”, for which the binding signal is 9240 fluorescence intensity (a.u.). As to “AACATACAACACAACGATCTTCCTTGATTGTTATACCTCTCGGAGTCACCTAGTGCAG”, the binding signal is 8430 fluorescence intensity (a.u.). Regarding “ATTGCCAGCAGTTACATTCTTGTTTGTATCTTCATAATCTCGGAGTCACCTAGTGCAG”, the binding signal is 8440 fluorescence intensity (a.u.). Take “ATACATTGTTTTTCTAACCCCGCTTAAGTATTCATGTTATCGGAGTCACCTAGTGCAG”: the binding signal is 8870 fluorescence intensity (a.u.). The same measure for “GTCGTCGTCGTCGTCGTCCCGTCTCCCGAACTCGCCGTGCCGGAGTCACCTAGTGCAG”: 8150 fluorescence intensity (a.u.).

On to “GCTCACCCTGATTACATTAATCTATCAATCACCATGCATTCGGAGTCACCTAGTGCAG”, for which the binding signal is 9510 fluorescence intensity (a.u.). In the case of “TTCCGCGAACCCATTCCCATTCCCATTCCCACTCTCCCTCCGGAGTCACCTAGTGCAG”, the binding signal was 8480 fluorescence intensity (a.u.). With “GAGCTGGTCCTGGCATCGTTTGAATGCCACTCATCACTGCCGGAGTCACCTAGTGCAG”, the binding signal is 8110 fluorescence intensity (a.u.).

As for “TGCTGTTCCATTTTCCATACAGCCATTCTTTTTTTCTGCTCGGAGTCACCTAGTGCAG”, the binding signal is 9250 fluorescence intensity (a.u.). With “TCTCCATCCCTCGCATCCCGTGGACCCATTCCACCCAGGACGGAGTCACCTAGTGCAG” the figure was 8150 fluorescence intensity (a.u.); with “TCAAGACTGCTTCCAGCCATTTCCAATCACATTCTTAGTCCGGAGTCACCTAGTGCAG”, 8540 fluorescence intensity (a.u.). The same measure for “CATTTTTCTCTTCATCGTTCAGTTTTTTCCTTTTTCCTGTCGGAGTCACCTAGTGCAG”: 11700 fluorescence intensity (a.u.); for “CGCCGTTGACTTTTTAAAATTTGTTTGACCGTTCGTCTTACGGAGTCACCTAGTGCAG”: 30700 fluorescence intensity (a.u.); for “GCTCGGGCATCCTTTTTAAGGGCTCGGGGCGGCGGAATCACGGAGTCACCTAGTGCAG”: 8290 fluorescence intensity (a.u.). As for “ATCGGTGGTGGTGGTGGTGGTGGCCATGAGTCTCGTTTGACGGAGTCACCTAGTGCAG”, the binding signal was 27500 fluorescence intensity (a.u.). The same measure for “ATCCGGTTTTTTTCGTTTTTGCCAGTTAGCCTAATTCTGCCGGAGTCACCTAGTGCAG”: 9250 fluorescence intensity (a.u.). Consider “GCCAGAGCCGTCCGTTGTGTTGTGTGTCACCTTTCCGCGCCGGAGTCACCTAGTGCAG”, for which the binding signal was 11900 fluorescence intensity (a.u.). “ATAAAGTCGTCGTCGTCTTCCTCTCTCTCTCTCTCTCTCTCGGAGTCACCTAGTGCAG”: the binding signal is 8630 fluorescence intensity (a.u.).
